Reference: publication PMC3622178
For at least one entry, the source does not settle the construct or the ends of the probe. At least one result comes from cells or an extract, where the contact may be indirect.

Sequences of proteins named here, by UniProt entry; tags and fusion partners are left off. A change or cut given only in a name is not applied to a line headed by its entry.
UniProt Q61069: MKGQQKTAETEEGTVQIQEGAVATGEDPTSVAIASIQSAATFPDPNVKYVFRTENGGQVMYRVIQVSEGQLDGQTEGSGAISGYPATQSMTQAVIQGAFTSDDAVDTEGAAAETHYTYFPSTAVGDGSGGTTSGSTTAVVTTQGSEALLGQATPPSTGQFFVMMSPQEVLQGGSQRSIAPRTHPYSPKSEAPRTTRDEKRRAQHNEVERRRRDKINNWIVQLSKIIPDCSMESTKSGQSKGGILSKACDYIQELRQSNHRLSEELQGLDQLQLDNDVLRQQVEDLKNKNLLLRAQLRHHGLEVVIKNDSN

Assays:
CLOCK + BMAL1 = assay: EMSA saturation; conditions: WT liver extract, CB2 tandem complex, 25 mM HEPES-KOH pH 7.6, 150 mM NaCl, 0.1 mM EDTA, 1 mM DTT, 200 ng/ul salmon sperm DNA, 50 ng/ul poly(dI-dC), 15 ug liver nuclear protein in 12 ul, 16 C 30 min, protein in an extract, label: 32P (5' kinase)
[1] = target: USF1 (Mus musculus (C57BL/6J liver)) (UniProt Q61069); assay: EMSA saturation; conditions: 25 mM HEPES-KOH pH 7.6, 150 mM NaCl, 0.1 mM EDTA, 1 mM DTT, 200 ng/ul salmon sperm DNA, 50 ng/ul poly(dI-dC), 15 ug liver nuclear protein in 12 ul, 16 C 30 min, protein in an extract, label: 32P (5' kinase)
[2] = ClockΔ19/ClockΔ19 liver extract

| Sequence | Kd (CLOCK + BMAL1; text gives 19 nM) [nM] | Kd [1, 2] [nM] | Kd ([1]; WT liver extract) [nM] | Kd (CLOCK + BMAL1) [nM] | Kd (CLOCK + BMAL1; text gives 0.86 nM) [nM] |
| --- | --- | --- | --- | --- | --- |
| CAAGTTGCCGCGTGAGCCAGCCTGCACGTGTTCCCTAC (double strand) [Per1 EP1-box] | 16.6 | 58.6 | 33.4 |  |  |
| CGCGGTCACGTTTTCCACTATGTGACAGCG (double strand) [Per2 E'-box] |  | 16.7 | 17.8 | 2 |  |
| CTAGCATAGCACGCGCAAAGCCATGTGCTTC / TCGAGAAGCACATGGCTTTGCGCGTGCTATG [Dbp EP-box] |  | 49.6 | 42.8 | 2.01 |  |
| CTAGCGACTCACGTGGCGAGGGAATGTGCAGC / TCGAGCTGCACATTCCCTCGCCACGTGAGTCG [Dbp EI2-box] |  | 9.64 | 6.1 |  | 0.71 |
